According to publication PMC4730607:
For some assays here: A negative result means that nothing was seen under these conditions. For some assays here: At least one verdict rests on a figure or table, not on a statement of the authors. The comparison behind a weaker result is the experiment's own reference, which may not be listed here. For some assays here: The exact form of at least one protein or probe is not confirmed.

Amino acid sequences for entries named in this document (tags omitted). Residues count along the entry.
UniProt Q9UBX2, 19-152: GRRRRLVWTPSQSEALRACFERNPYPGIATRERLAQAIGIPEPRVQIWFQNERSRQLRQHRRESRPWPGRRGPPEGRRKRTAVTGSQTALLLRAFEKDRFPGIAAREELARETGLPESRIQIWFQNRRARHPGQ

Columns and labels:
[1] = biological target: DUX4 DNA-binding domain (DUX4-HD, both homeodomains) (UniProt Q9UBX2); assay: competition with a labelled probe; conditions: vs FAM-CT, Direct EMSA: 10 uL 100 uM probe + 20 uL 250 uM protein (protein stock in 500 mM NaCl, 20 mM Tris-Cl pH 7.4), 1 h on ice, 3% agarose, EtBr, recombinant protein, residues 19-152
[2] = biological target: DUX4 DNA-binding domain (DUX4-HD, both homeodomains) (UniProt Q9UBX2); assay: EMSA; conditions: excess protein; Direct EMSA: 10 uL 100 uM probe + 20 uL 250 uM protein (protein stock in 500 mM NaCl, 20 mM Tris-Cl pH 7.4), 1 h on ice, 3% agarose, EtBr; recombinant protein; residues 19-152

Sequence	binding result [1]	binding result [2]	binding result ([1]; very weak)
GGCAGTCCAGCGTAATCAAGTCGGC (double strand) [DUX4(half)]	no binding		
GGCAGTCTAATTAGCTTTAGTCGGC (double strand) [SELEX3]		binds more weakly	binds more weakly
GGCAGTCTAATTGAATCAAGTCGGC (double strand) [MALR]	binds more weakly		
GGCAGTCTTCTAATTAGTAGTCGGC (double strand) [Pitx1-25]	no binding		
